This is one part of the list. The main result of the screen is listed elsewhere. These columns were measured beside it and carry no call. The list favours compounds with an active or inconclusive main result. Words in brackets tell the shape of the fitted curve; partial curves, single points and poor fits give uncertain potencies.

Experimental findings from PubChem BioAssay AID493014 (National Center for Advancing Translational Sciences (NCATS), 2011) are described below.

The experiment is described as follows: qHTS Assay to Find Inhibitors of Chronic Active B-Cell Receptor Signaling. The settings on record: ABC-DLBCL IkBa-CBG/CBR reporter, luminescence ratio (green luciferase fused to IkBa over red control in TMD8 lymphoma cells), 4 h. In a few lines:
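Cell line TMD8 (human ABC DLBCL), stably expressing tet-inducible CBG68-IkBa fusion and CBR; IMDM/0.5% FBS; cpd up to 46 uM; dox induction, 4 h, 37C/5% CO2; dual luminescence; green/red ratio; MG132 control.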
For orientation: In qHTS, concentration-response curves come from the screen itself.

Setting [1] is: measured here: CBR red luminescence, cell number.
Where [2] appears, read: measured here: IkBa-CBG green luminescence.

On to `CCn1c(C(=O)N2CCC(C(=O)NCc3cccs3)CC2)cc2sccc21`, for which, under setting [1], the AC50 (commonly the concentration giving half of the maximal activity seen) was 0.0058 µM [rising, full curve, poor fit].

Regarding `COc1ccc(-c2noc(-c3ccc(Cl)cc3)n2)cc1`, the AC50 under setting [1] is 2.06 µM [rising, partial curve]. With `CCCN(CC(=O)Nc1ccccc1OC)C(=O)c1ccc(COc2ccccc2)o1`, the AC50 under setting [1] was 23.1 µM [rising, partial curve, poor fit]. On the same count and under the same terms, for `CC1CCN(c2ccc3c(c2)S(=O)(=O)c2cccc(C(=O)NC4CCCCC4)c2C3=O)CC1` the value was 1.46 µM [falling, partial curve, poor fit]; for `CC(=O)OCCCN1c2ccccc2Nc2nnc(-c3ccccc3)cc21`, 8.91 µM [falling, partial curve, poor fit]; for `CCN1C(=O)[C@H]2[C@@H](c3ccc(-c4ccc(F)cc4)c(OC)c3)N[C@@](C)(C(=O)OC)[C@H]2C1=O`, 13 µM [falling, partial curve]. As for `O=C(/C=C/c1ccco1)Nc1cccc(-c2nc3ccccc3[nH]2)c1`, the half-maximal activity concentration (AC50) under setting [1] was 15.8 µM [falling, partial curve]. In the case of `O=C(CSc1n[nH]c(=O)[nH]c1=O)Nc1ccc(SC(F)F)cc1`, the AC50 under setting [1] is 29.1 µM [rising, single point].

Regarding `Cn1cc(Cl)c(C(=O)OCC(=O)Nc2nc(-c3ccc(Br)cc3)cs2)n1`, the AC50 under setting [1] was 2.06 µM [rising, partial curve, poor fit]. On the same count and under the same terms, the same measure for `O=C(Nc1ccc(NC(=O)c2ccco2)c(Cl)c1)c1ccccc1`: 0.708 µM [rising, full curve, poor fit]. `O=C(NC1CCN(Cc2ccccc2)CC1)c1cn(-c2ccccc2)nc1-c1cccnc1`: under setting [1], the AC50 is 11.6 µM [rising, partial curve, poor fit].

Turning to `O=C(Nn1c(COc2ccccc2)nc2ccccc2c1=O)C(Cl)(Cl)Cl`, the AC50 was 14.1 µM [falling, partial curve] under setting [1] and 35.5 µM [falling, single point] under setting [2]. Take `CNc1cc(N2CCN(S(=O)(=O)N(C)C)CC2)ccc1[N+](=O)[O-]`: under setting [1], the AC50 was 35.5 µM [rising, partial curve, poor fit]. The same measure, in the same setting: the same measure for `Cc1oc(-c2ccc(Cl)cc2)nc1CN1CCCC(C(=O)N2CCOCC2)C1` (stereo unspecified): 35.5 µM [falling, single point]. For `O=C(Cc1ccc(-n2c(=O)c3ccccc3n(Cc3ccc(F)cc3)c2=O)cc1)NCC1CCCO1` (stereo unspecified), the AC50 under setting [2] was 4.61 µM [falling, partial curve]. Take `O=C(CNc1ccccc1)Nc1ccc(F)cc1`: the AC50 under setting [1] is 12.6 µM [falling, partial curve, poor fit]. With `CC(C)(C)NC(=O)C(c1ccc(F)cc1)N(CCc1ccccc1)C(=O)c1ccn[nH]1` (stereo unspecified), the AC50 reads like this: under setting [1], 8.91 µM [falling, partial curve]; under setting [2], 11.2 µM [rising, partial curve]. Consider `Cc1ccc(-c2c(C(=O)N/N=C/c3c[nH]c4ccccc34)nnn2-c2nonc2N)cc1`, for which the concentration at half-maximal activity (AC50) under setting [1] is 22.4 µM [falling, single point]. With `CCOC(=O)C1=C(C)NC(C)=C(C(=O)OCC)C1C(=O)OCC(=O)NCc1ccccc1OC`, the AC50 under setting [2] is 23.1 µM [falling, partial curve, poor fit]. In the case of `Cc1cccc(-c2c3c(=O)n(C)c(=O)n(C)c3cn2-c2ccccc2O)c1`, the AC50 under setting [1] was 35.5 µM [falling, single point]. Still for that read-out and setting: for `CN1CCN(CC(=O)c2cc(C(C)(C)C)c(O)c(C(C)(C)C)c2)CC1` the value was 35.5 µM [falling, single point]. The same measure, in the same setting: the same measure for `CCCn1c2ccccc2c2nnc(SCC(=O)Nc3ncccn3)nc21`: 6.51 µM [falling, single point]; for `COc1cccc(NC(=S)/C(=C(\[O-])c2cc(C)n(-c3ccccc3F)c2C)[n+]2ccc(N(C)C)cc2)c1`: 8.91 µM [falling, partial curve, poor fit]; for `Cc1ccc(-c2onc3ccc(C(=O)O)cc23)cc1`: 10 µM [falling, partial curve, poor fit].

For `CCn1c(CN2c3ccccc3Sc3ccccc32)n[nH]c1=S`, under setting [1], the AC50 was 35.5 µM [falling, single point]. On the same count and under the same terms, the same measure for `CN(CC(=O)Nc1ccccc1Cl)C(=O)CSc1nncn1C`: 29.1 µM [rising, partial curve, poor fit]. For `CN1CCc2nc(SCCOc3ccccc3)c(C#N)cc2C1`, under setting [2], the AC50 was 3.26 µM [rising, full curve]. Consider `O=C(O)Cc1csc(NC(=O)c2ccco2)n1`, for which, under setting [1], the AC50 was 0.731 µM [rising, full curve, poor fit].

In the case of `CCN(c1ccc(NS(=O)(=O)c2cc(Cl)ccc2Cl)cc1)C(C)C`, under setting [1], the AC50 is 32.6 µM [falling, single point]. Same read-out and setting: the same measure for `COc1ccc(N=CC2=C(O)c3ccccc3C2=O)cc1`: 16.4 µM [falling, single point]; for `COc1ccc(C(=O)/C=C/C(=O)N(CC(=O)NC2CCCCC2)Cc2cccs2)c(O)c1`: 10 µM [rising, partial curve, poor fit]; for `CC(C)OCCCn1c(=S)[nH]c2ccc(N3CCOCC3)cc2c1=O`: 0.731 µM [falling, full curve, poor fit]. On the same count and under the same terms, for `N#CCSc1nnc(COc2cccc3ccccc23)n1-c1ccccc1` the value was 25.1 µM [falling, single point]; for `Cc1ccc(-c2nc(CS(=O)CC(=O)NCCN3CCCC3)c(C)o2)cc1` (stereo unspecified), 32.6 µM [rising, single point]; for `COC(=O)CSc1nc(-c2cccs2)ccc1C#N`, 1 µM [rising, full curve].

As to `Cn1nccc1C(=O)N1CCCC(C(=O)c2cccc3ccccc23)C1` (stereo unspecified), the AC50 under setting [1] is 5.62 µM [rising, partial curve, poor fit]. Take `CCOC(=O)C1=C(COC(=O)/C=C/c2cccc(OC)c2)NC(=O)NC1C` (stereo unspecified): the concentration at half-maximal activity (AC50) under setting [1] was 35.5 µM [falling, single point]. On the same count and under the same terms, for `Cn1c(SCC(=O)N2CCCc3ccccc32)nc2ccccc2c1=O` the value was 2.31 µM [falling, full curve]; for `C(=N\n1cnnc1)/c1ccc(N2CCOCC2)s1`, 8.91 µM [rising, partial curve, poor fit]. As to `Cc1nc(Cl)c(C(=O)Nc2cccc(F)c2)c(C)c1Cl`, the AC50 under setting [1] is 1.26 µM [rising, partial curve, poor fit]. Still for that read-out and setting: the same measure for `Cc1ccc(C(=O)Cn2nnc(-c3ccccc3)n2)cc1`: 4.47 µM [rising, partial curve, poor fit]; for `CC(C)(C)c1ccc(/C=C/C(=O)N2CCCCC2)cc1`: 2.51 µM [rising, full curve]; for `O=c1c2ccccc2nc2oc3ccccc3n12`: 1.41 µM [rising, full curve, poor fit].

`O=C(Cn1c(=O)n(-c2ccccc2)c(=O)c2sccc21)NCc1ccccc1`: the AC50 under setting [1] is 11.2 µM [falling, partial curve]. For `O=C(Nc1nc2ccc(S(=O)(=O)N3CCCCC3)cc2s1)c1cccnc1`, the AC50 under setting [1] is 0.411 µM [falling, partial curve, poor fit].

Take `Cc1cccc(C)c1Nc1sc(C(=O)c2ccccc2)c(N)c1C(=O)Nc1ccc(F)cc1`: the AC50 under setting [1] is 35.5 µM [falling, single point]. Same read-out and setting: for `CC(=O)c1ccc(C(=O)N2CCc3c([nH]c4ccccc34)C2c2ccccn2)s1` (stereo unspecified) the value was 35.5 µM [falling, single point]; for `O=C(c1cncc(Br)c1)N1CCN(c2ccc(N3CCOCC3)nn2)CC1`, 2.91 µM [falling, single point]; for `CCOC(=O)c1oc2ccccc2c1CN1CCCCC1`, 5.01 µM [rising, single point]. On the same count and under the same terms, the same measure for `COc1ccc(CCNC(=O)c2ccc(CNc3nc(=S)[nH]c4ccccc34)cc2)cc1OC`: 35.5 µM [falling, single point]. On the same count and under the same terms, for `COc1cc(CNc2ccc(N3CCCC3)cc2)ccc1OCc1ccccc1` the value was 29.1 µM [falling, single point]; for `Cc1ccc(O)c(NC(=O)c2cccc(NC(=O)c3ccco3)c2)c1`, 29.1 µM [falling, single point]. For `CC(C)CC(=O)Nc1cc2nn(-c3ccccc3)nc2cc1Cl`, the AC50 under setting [1] was 1.64 µM [rising, partial curve].

In the case of `CCOC(=O)c1cc2cc(C)ccc2[nH]1`, the AC50 under setting [1] is 6.51 µM [rising, partial curve, poor fit]. As for `CSc1nc(-c2ccccc2)nc(C(Cl)Cl)n1`, the AC50 reads like this: under setting [1], 10.3 µM [rising, partial curve]; under setting [2], 20.6 µM [falling, single point]. On to `CC(Sc1nc(-c2ccc(F)cc2)cs1)C(=O)Nc1ccc(Cl)cn1` (stereo unspecified), for which, under setting [1], the AC50 was 5.17 µM [falling, full curve]. On the same count and under the same terms, for `Cn1cccc1C(=O)NC(=O)COC(=O)c1ccccc1Sc1ccccc1C#N` the value was 5.62 µM [falling, single point].

As for `C=CCN1C(=O)C(O)(CC(=O)c2ccco2)c2cc(Br)ccc21` (stereo unspecified), the AC50 is 35.5 µM [rising, single point] under setting [1] and 25.1 µM [falling, single point] under setting [2]. Consider `Cc1cc(C)nc(SCNC(=O)c2ccccc2)n1`, for which the AC50 under setting [1] is 8.2 µM [rising, partial curve, poor fit]. Turning to `CC(C)Oc1cccc(-c2cc(C(=O)N3CCN(c4ncccn4)CC3)c3ccccc3n2)c1`, the AC50 under setting [1] is 29.1 µM [falling, partial curve, poor fit].

Take `O=C(CCNC(=O)c1ccc(Br)cc1)Nc1cccc(S(=O)(=O)N2CCCCC2)c1`: the AC50 under setting [1] is 29.1 µM [falling, single point]. The same measure, in the same setting: the same measure for `COc1ccc(CNCc2cn(-c3cccc(F)c3)nc2-c2ccc(C)o2)cc1`: 25.1 µM [falling, single point].
